Assay results: patent US20170029507A1 (IMAGINAB, published 2017)
Results are given in words; binding and its absence hold for the method and conditions named. Some entries that bind do so weakly or less than the wild type.

Protein sequences, listed by entry. Tags and fused reporters are not part of them. Lines headed by an entry give the natural chain unless they say otherwise; changes in a name come on top.
UniProt P01732: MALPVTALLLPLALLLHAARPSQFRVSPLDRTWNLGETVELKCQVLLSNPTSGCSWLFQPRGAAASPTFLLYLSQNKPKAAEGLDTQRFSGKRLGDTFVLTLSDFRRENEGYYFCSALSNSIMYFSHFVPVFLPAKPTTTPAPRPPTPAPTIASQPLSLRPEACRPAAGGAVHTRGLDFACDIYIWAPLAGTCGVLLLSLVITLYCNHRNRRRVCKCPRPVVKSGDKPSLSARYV

Columns and labels:
[1] = molecular target: cellular human CD8 (human) (UniProt P01732); test: flow cytometry on CD8+ cells, transfection supernatants, anti-human IgG Fc-APC
[2] = molecular target: cellular human CD8 (human) (UniProt P01732); test: flow cytometry, CD8+ cells, transfection supernatant at several dilutions, APC anti-human IgG (Fc-specific)
[3] = molecular target: purified recombinant human CD8 protein (human) (UniProt P01732); test: SPR, soluble CD8; SPR analysis, soluble CD8; binds with several-fold loss in affinity vs chimeric minibody and parental OKT8

Measured: binding

B1: Humanized IAb_Mb1_CD8 (protein)
chain: DVQITQSPSSLSASVGDRVTITCRTSRSISQYLAWYQQKPGKVPKLLIYSGSTLQSGVPSRFSGSGSGTDFTLTISSLQPEDVATYYCQQHNENPLTFGGGTKVEIKGSTSGGGSGGGSGGGGSSQVQLVQSGAEVKKPGATVKISCKVSGFNIKDTYIHWVQQAPGKGLEWMGRIDPANDNTLYASKFQGRVTITADTSTDTAYMELSSLRSEDTAVYYCARGYGYYVFDHWGQGTLVTVSSEPKSCDKTHTCPPCGGGSSGGGSGGQPREPQVYTLPPSRDELTKNQVSLTCLVKGFYPSDIAVEWESNGQPENNYKTTPPVLDSDGSFFLYSKLTVDKSRWQQGNVFSCSVMHEALHNHYTQKSLSLSPGK
binds: all assays above

B2: Humanized IAb_Mb2_CD8 (protein)
chain: QVQLVQSGAEVKKPGATVKISCKVSGFNIKDTYIHWVQQAPGKGLEWMGRIDPANDNTLYASKFQGRVTITADTSTDTAYMELSSLRSEDTAVYYCARGYGYYVFDHWGQGTLVTVSSGSTSGGGSGGGSGGGGSSDVQITQSPSSLSASVGDRVTITCRTSRSISQYLAWYQQKPGKVPKLLIYSGSTLQSGVPSRFSGSGSGTDFTLTISSLQPEDVATYYCQQHNENPLTFGGGTKVEIKEPKSCDKTHTCPPCGGGSSGGGSGGQPREPQVYTLPPSRDELTKNQVSLTCLVKGFYPSDIAVEWESNGQPENNYKTTPPVLDSDGSFFLYSKLTVDKSRWQQGNVFSCSVMHEALHNHYTQKSLSLSPGK
binds: all assays above
